Measurements taken from the supplement of paper PMC10849652.
Some of the results follow. Residues, ends and D or L forms follow the SMILES beside them. *: point of attachment. Cbz = O=C(OCc1ccccc1)*

The chains behind the UniProt entries cited, without tags or fusion partners. Where a name states a change or a piece, a line headed by the entry shows the natural chain unless it says otherwise.
UniProt P68366, whole entry, looked up: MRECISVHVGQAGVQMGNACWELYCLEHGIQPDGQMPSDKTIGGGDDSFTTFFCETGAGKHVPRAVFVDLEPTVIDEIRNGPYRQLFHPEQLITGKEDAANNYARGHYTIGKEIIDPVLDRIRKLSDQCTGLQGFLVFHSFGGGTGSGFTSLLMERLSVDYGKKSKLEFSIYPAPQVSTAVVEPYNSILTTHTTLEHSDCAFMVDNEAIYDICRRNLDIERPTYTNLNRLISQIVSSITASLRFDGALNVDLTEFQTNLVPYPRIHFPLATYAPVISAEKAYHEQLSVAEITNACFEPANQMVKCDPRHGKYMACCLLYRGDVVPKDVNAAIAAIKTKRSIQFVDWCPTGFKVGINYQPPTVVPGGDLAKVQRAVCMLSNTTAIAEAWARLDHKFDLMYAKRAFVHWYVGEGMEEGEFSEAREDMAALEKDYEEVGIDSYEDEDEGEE
UniProt O14817: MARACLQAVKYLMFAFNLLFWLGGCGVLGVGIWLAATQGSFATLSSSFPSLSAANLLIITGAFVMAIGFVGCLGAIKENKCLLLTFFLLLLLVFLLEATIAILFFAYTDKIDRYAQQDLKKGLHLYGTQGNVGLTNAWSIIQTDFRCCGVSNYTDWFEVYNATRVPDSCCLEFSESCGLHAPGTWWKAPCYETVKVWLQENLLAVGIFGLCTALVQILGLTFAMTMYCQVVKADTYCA
UBE2L5, A0A1B0GUS4, UniProt A0A1B0GUS4, whole entry, looked up: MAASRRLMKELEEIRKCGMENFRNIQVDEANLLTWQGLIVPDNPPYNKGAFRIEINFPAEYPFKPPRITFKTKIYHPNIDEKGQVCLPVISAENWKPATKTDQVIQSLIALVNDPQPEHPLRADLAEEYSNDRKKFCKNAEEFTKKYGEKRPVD
UniProt Q8WUA8: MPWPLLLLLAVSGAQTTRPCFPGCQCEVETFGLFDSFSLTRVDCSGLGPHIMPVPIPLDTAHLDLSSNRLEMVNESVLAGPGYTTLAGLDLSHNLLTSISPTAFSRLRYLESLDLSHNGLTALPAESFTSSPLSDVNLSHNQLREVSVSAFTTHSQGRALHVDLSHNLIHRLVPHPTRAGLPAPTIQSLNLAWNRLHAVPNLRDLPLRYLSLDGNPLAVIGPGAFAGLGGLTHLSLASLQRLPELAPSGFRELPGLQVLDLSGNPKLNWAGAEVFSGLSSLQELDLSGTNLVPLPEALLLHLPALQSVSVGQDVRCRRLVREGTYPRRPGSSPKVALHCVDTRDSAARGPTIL
UniProt O95857: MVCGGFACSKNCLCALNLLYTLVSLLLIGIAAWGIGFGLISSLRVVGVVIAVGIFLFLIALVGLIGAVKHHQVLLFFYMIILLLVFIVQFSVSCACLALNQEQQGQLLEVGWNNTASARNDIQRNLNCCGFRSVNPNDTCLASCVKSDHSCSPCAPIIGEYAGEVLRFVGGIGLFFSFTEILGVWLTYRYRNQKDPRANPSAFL
UniProt Q96RT7, whole entry, looked up: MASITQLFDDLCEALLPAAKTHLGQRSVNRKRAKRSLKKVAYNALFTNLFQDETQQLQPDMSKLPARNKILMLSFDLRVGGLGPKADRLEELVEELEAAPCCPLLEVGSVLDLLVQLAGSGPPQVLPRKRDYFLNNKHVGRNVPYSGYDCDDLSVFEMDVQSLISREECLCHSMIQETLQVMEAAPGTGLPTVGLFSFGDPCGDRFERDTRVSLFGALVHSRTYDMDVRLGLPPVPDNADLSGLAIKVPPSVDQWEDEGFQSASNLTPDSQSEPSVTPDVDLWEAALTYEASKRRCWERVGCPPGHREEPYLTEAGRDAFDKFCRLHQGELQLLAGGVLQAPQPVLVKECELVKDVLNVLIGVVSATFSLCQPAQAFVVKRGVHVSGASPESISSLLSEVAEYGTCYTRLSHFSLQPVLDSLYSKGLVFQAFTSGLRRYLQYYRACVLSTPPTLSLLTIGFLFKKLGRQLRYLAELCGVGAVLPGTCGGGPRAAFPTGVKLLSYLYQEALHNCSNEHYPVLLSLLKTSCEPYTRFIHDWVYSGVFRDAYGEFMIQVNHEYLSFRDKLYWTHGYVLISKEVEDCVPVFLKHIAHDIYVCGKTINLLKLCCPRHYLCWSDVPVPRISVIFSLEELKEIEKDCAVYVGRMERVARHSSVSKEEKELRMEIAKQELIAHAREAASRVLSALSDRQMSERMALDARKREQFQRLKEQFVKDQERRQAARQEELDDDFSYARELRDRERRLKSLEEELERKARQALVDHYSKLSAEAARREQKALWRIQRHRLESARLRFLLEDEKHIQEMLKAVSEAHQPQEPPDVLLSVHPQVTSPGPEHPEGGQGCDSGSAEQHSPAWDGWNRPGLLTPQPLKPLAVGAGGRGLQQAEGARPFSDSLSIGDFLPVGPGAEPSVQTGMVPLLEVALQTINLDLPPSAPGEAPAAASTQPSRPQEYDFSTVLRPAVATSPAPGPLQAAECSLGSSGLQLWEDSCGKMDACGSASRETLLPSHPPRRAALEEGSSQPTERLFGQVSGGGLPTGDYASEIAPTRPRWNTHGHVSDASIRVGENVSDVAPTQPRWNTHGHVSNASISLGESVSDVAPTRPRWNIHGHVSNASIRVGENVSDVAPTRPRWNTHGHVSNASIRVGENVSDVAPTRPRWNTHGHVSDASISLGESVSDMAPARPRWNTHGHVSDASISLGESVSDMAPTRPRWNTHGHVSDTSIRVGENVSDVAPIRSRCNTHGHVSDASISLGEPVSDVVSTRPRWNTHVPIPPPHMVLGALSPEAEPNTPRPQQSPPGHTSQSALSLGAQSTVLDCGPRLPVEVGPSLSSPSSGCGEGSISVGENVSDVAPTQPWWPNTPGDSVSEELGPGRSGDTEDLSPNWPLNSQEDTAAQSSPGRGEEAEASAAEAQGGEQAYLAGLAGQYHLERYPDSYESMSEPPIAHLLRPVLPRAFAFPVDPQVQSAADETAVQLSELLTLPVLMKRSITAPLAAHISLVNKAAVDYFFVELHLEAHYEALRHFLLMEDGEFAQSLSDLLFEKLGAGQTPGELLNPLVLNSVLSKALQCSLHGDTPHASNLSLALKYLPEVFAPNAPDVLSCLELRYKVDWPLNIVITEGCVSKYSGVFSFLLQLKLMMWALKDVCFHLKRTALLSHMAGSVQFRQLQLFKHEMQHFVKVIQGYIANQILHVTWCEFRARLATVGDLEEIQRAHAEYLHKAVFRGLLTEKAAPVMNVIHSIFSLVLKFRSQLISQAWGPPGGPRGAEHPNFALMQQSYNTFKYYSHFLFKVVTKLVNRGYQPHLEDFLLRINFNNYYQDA
UniProt Q8N2K1: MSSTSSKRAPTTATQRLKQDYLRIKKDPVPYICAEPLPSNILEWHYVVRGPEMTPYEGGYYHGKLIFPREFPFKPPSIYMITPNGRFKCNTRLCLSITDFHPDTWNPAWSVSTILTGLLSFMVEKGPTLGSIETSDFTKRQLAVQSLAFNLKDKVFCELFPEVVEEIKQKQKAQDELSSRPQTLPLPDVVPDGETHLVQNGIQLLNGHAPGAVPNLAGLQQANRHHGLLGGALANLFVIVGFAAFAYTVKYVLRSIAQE
UniProt Q96ET8: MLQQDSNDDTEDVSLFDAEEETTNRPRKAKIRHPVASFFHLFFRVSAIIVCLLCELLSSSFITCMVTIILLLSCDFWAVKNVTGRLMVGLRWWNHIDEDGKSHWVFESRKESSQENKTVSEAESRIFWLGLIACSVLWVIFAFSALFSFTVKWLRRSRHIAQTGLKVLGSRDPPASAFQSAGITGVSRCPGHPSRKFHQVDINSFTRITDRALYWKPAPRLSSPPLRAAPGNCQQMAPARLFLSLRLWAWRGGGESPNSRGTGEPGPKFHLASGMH
UniProt Q96AE7: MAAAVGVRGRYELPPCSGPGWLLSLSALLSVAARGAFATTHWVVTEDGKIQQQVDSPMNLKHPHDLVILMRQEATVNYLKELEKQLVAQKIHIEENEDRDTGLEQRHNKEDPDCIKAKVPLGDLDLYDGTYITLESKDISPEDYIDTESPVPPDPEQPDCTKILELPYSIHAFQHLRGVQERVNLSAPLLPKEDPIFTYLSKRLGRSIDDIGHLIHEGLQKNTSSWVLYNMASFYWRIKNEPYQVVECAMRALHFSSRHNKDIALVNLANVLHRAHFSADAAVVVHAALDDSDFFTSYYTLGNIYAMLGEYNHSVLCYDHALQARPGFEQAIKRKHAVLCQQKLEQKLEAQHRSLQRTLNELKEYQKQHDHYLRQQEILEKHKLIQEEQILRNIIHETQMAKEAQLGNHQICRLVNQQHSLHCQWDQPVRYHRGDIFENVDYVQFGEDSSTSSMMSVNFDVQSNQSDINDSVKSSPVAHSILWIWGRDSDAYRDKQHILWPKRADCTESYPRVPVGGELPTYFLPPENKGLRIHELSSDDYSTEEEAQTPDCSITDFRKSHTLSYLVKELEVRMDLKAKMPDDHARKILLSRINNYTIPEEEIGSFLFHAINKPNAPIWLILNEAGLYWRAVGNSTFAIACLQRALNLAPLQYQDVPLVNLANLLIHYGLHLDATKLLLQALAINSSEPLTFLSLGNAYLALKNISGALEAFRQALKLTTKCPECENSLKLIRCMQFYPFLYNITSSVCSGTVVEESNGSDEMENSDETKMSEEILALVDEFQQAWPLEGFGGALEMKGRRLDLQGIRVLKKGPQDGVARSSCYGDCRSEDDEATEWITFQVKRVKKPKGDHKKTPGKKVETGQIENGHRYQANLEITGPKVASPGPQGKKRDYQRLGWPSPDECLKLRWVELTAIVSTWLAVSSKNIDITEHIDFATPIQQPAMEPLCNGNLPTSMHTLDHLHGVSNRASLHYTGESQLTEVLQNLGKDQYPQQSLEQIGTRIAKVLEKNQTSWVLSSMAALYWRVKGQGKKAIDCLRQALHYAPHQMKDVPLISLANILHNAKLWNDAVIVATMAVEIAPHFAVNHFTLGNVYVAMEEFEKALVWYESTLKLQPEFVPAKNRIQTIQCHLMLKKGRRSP
UniProt Q3ZCM7, whole entry, looked up: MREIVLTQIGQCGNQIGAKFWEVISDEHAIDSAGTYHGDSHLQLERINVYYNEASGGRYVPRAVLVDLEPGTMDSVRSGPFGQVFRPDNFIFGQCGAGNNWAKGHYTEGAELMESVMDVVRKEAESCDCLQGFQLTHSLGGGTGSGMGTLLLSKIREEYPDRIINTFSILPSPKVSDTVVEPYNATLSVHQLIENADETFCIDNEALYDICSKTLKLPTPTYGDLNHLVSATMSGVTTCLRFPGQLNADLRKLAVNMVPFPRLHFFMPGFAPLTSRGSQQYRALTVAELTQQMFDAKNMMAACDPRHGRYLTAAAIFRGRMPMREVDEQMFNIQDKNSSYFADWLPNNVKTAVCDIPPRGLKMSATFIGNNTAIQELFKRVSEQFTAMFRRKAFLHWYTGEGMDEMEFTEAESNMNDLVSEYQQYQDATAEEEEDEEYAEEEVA
UniProt Q86VQ3: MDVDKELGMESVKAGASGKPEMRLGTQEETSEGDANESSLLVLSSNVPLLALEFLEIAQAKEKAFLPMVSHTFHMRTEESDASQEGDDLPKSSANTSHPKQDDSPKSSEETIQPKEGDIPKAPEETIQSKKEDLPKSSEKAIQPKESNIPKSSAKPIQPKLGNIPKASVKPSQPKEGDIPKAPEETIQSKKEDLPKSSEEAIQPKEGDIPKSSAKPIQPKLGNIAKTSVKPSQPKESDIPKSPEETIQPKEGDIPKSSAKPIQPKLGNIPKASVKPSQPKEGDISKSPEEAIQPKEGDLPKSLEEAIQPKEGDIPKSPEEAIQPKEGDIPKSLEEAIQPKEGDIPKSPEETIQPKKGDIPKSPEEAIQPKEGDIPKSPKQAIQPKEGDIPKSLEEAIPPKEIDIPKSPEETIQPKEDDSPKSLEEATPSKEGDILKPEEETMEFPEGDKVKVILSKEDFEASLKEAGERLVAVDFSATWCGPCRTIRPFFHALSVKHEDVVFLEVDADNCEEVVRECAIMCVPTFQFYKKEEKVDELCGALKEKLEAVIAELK
UniProt Q96RR1: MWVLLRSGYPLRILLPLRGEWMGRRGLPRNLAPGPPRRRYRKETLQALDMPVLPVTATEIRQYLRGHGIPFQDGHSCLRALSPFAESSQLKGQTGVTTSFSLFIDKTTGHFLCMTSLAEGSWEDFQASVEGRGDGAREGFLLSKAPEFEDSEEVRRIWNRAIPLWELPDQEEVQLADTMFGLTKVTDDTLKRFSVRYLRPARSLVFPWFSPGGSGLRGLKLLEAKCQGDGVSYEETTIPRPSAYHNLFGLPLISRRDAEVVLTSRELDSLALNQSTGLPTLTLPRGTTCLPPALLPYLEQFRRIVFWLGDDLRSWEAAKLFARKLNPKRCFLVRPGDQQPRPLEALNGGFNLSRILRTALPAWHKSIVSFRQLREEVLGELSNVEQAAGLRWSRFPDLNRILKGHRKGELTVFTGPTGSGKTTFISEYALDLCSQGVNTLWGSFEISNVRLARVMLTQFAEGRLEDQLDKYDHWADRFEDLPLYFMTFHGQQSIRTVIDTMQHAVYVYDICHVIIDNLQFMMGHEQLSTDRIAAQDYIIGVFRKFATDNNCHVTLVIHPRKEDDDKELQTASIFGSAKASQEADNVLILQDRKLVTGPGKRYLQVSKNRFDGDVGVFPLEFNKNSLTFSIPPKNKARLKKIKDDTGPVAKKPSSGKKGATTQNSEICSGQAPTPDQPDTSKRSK

Experiments:
Assay in all cases: log2 fold change, soluble protein after heating vs DMSO (PISA); higher = thermal stabilisation; K562 cells, 10 uM, 30 min; active = over 0.2 and 3.5 SD of the protein, either way, in both replicates (recomputed)
[1] = compound: C1COCCN1CCN2C3=CC=CC=C3N=C2NC(=O)C4=CC(=CC=C4)[N+](=O)[O-] [IRAK-1-4 Inhibitor I]
Summary of the method: (§1)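 K562 cells at 2×10^6 cells/mL were treated with 10 μM compound for 30 min. Aliquots were heated for 3 min across 48°C-58°C, pooled, and extracted in PBS with 0.5% NP-40 at 4°C; soluble protein was the supernatant after 21,000xg for 90 min. Soluble protein was quantified by TMTpro 16plex LC-MS/MS with channel sums equalised, and reported as log2 fold change in thermal stability against DMSO controls, with values from duplicates.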

[2] = compound: C=CC(=O)N1CCC[C@@H](n2nc(-c3ccc(Oc4ccccc4)cc3)c3c(N)ncnc32)C1 [ibrutinib]
Summary of the method: as §1

[3] = compound: CC(=O)c1cnc2ccc(-c3cc(Cl)c(O)c(Cl)c3)nc2c1N[C@H]1CC[C@H](CN(C)C)CC1
Summary of the method: as §1

[4] = compound: CC(C)(O)CC(=O)NCCn1ccc2ncnc(Nc3ccc(Oc4cccc(C(F)(F)F)c4)c(Cl)c3)c21
Summary of the method: as §1

[5] = compound: CC(C)C1=C2N=C(C=C(N2N=C1)NCC3=CC=CC=C3)NCCCCCCN
Summary of the method: as §1

[6] = compound: CC(C)N(C[C@H]1O[C@@H](n2cnc3c(N)ncnc32)[C@H](O)[C@@H]1O)[C@H]1C[C@@H](CCc2nc3cc(C(C)(C)C)ccc3[nH]2)C1 [pinometostat]
Summary of the method: as §1

[7] = compound: CC1=C(C(CC(=O)N1)C2=CC=C(C=C2)C(F)(F)F)C(=O)NC3=C(C=C4C(=C3)C=NN4)F
Summary of the method: as §1

[8] = compound: CC1=C(C2=C(C=C1)C(=O)C3=CC=CC=C3N2CCCN)C
Summary of the method: as §1

[9] = compound: CC(C)(C)Cn1c(N)nc2ccc(-c3[nH]c(C(C)(C)C)nc3-c3ccc(F)cc3)nc21 [ralimetinib]
Summary of the method: as §1

[10] = compound: CC(C)C[C@@H](C=O)NC(=O)[C@H](CC(C)C)NC(=O)[C@H](CC(C)C)NC(=O)OCc1ccccc1
Summary of the method: as §1

Measured: log2 fold change

TUBB4A (UniProt M0QYM7)
inactive: [1] -0.035 | [2] -0.111 | [3] -0.282 | [4] 0.189 | [5] 0.042 | [6] 0.073 | [7] -0.048 | [8] 0.018

TXNDC16 (UniProt Q9P2K2)
inactive: [1] 0.054 | [3] -0.028 | [9] 0.006 | [4] 0.048 | [5] -0.038 | [10] 0.045 | [6] 0.061 | [7] -0.005 | [8] -0.057

TUBB8B (UniProt A6NNZ2)
inactive: [1] 0.033 | [2] 0.007 | [9] -0.027 | [4] -0.044 | [5] -0.099 | [10] -0.012 | [6] -0.05 | [7] 0.021 | [8] 0.087

TUBGCP5 (UniProt Q96RT8)
inactive: [1] 0.064 | [2] -0.09 | [4] 0.144 | [5] 0.293 | [6] 0.089 | [7] 0.076 | [8] -0.059

TSPAN3 (UniProt O60637)
inactive: [1] -0.017 | [2] -0.039 | [3] 0.025 | [9] -0.337 | [5] -0.017 | [10] 0.169 | [6] -0.009 | [7] -0.015 | [8] 0.032

TUBB2B (UniProt Q9BVA1)
inactive: [1] 0.174 | [2] 0 | [3] 0.05 | [9] 0.041 | [5] 0.002 | [10] -0.037 | [6] -0.058 | [7] 0.022 | [8] 0.032

UBE2G2 (UniProt P60604)
inactive: [1] 0.04 | [2] 0.059 | [3] 0.027 | [9] 0.002 | [5] -0.492 | [10] -0.004 | [6] 0.035 | [7] -0.083 | [8] 0.405

TUBA4A (UniProt P68366)
inactive: [1] 0.039 | [2] 0.01 | [3] 0.001 | [9] -0.044 | [4] -0.032 | [5] 0 | [10] 0.016 | [6] -0.039 | [8] 0.011

UBA1 (UniProt P22314)
active: [5] -0.363
inactive: [1] -0.145 | [2] -0.058 | [3] -0.047 | [9] 0.068 | [4] -0.15 | [10] -0.055 | [6] 0.019 | [8] 0.336

TXN2 (UniProt Q99757)
inactive: [1] 0.081 | [2] 0.021 | [3] 0.072 | [9] -0.093 | [4] 0.079 | [5] 0.086 | [10] -0.029 | [6] -0.048 | [8] 0.041

TSPAN4 (UniProt O14817)
inactive: [2] -0.154 | [9] -0.055 | [5] 0.156 | [10] 0.06 | [8] 0.065

TYW5 (UniProt A2RUC4)
inactive: [3] -0.284 | [9] 0.085 | [4] 0.027 | [5] -0.164 | [10] -0.155 | [8] -0.006

TST (UniProt Q16762)
inactive: [1] -0.03 | [3] -0.059 | [4] 0.045 | [5] -0.222 | [6] 0.04 | [7] 0.069

Two entries drawn at random from the list so far, as already listed:
TXN2 (UniProt Q99757)
inactive: [1] 0.081 | [2] 0.021 | [3] 0.072 | [9] -0.093 | [4] 0.079 | [5] 0.086 | [10] -0.029 | [6] -0.048 | [8] 0.041

TYW5 (UniProt A2RUC4)
inactive: [3] -0.284 | [9] 0.085 | [4] 0.027 | [5] -0.164 | [10] -0.155 | [8] -0.006

The listing continues.

TSPYL1 (UniProt Q9H0U9)
inactive: [3] 0.041 | [5] 0.073 | [7] -0.1

UBE2L5, A0A1B0GUS4
inactive: [5] 0.074 | [8] -0.605

TWISTNB (UniProt Q3B726)
inactive: [2] 0.128 | [4] 0.098 | [5] -0.05 | [8] 0.246

TYK2 (UniProt P29597)
inactive: [2] -0.21

UBE2M (UniProt M0QX69)
inactive: [1] -0.126 | [6] -0.014

TSKU (UniProt Q8WUA8)
inactive: [5] -0.084 | [8] -0.2

TTC21B (UniProt Q7Z4L5)
inactive: [8] -0.103

TTR (UniProt P02766)
inactive: [3] 0.068 | [5] 0.116

TSPAN17 isoform 4 (UniProt Q96FV3)
inactive: [4] -0.338 | [5] -0.097

UBE2L6 (UniProt O14933)
inactive: [3] -0.12 | [5] -0.033

TSPAN13 (UniProt O95857)
inactive: [2] 0.175 | [9] -0.149 | [4] 0.151 | [5] -0.198 | [10] 0.018 | [8] 0.065

TUBGCP6 (UniProt Q96RT7)
inactive: [1] 0.035 | [3] -0.032 | [6] -0.051

TUBD1 (UniProt Q9UJT1)
inactive: [1] -0.282 | [3] 0.178 | [9] 0.297 | [10] 0.319 | [6] 0.204

TSPYL4 (UniProt Q9UJ04)
inactive: [1] -0.086 | [6] 0.061

UBE2J2 isoform 3 (UniProt Q8N2K1)
inactive: [2] 0.086 | [3] -0.017 | [4] -0.019 | [5] -0.185 | [8] 0.02

TVP23C (UniProt Q96ET8)
inactive: [3] 0.021 | [5] 0.011 | [8] 0.037

TTC17 isoform 2 (UniProt Q96AE7)
inactive: [1] -0.004 | [5] 0.071 | [6] 0.136

TUBB8 (UniProt Q3ZCM7)
inactive: [1] 0.021 | [9] 0.013 | [5] -0.002 | [10] 0.14 | [6] -0.016 | [7] -0.035

TXNDC2 (UniProt Q86VQ3)
inactive: [2] -0.139 | [3] 0.124 | [9] -0.139 | [10] -0.028 | [7] 0.164

TWNK (UniProt Q96RR1)
inactive: [2] -0.033 | [3] -0.015 | [9] 0.072 | [4] -0.093 | [5] 0.083 | [10] 0.248 | [7] 0.061 | [8] 0.071

TTC5 (UniProt Q8N0Z6)
inactive: [9] 0.098 | [10] 0.098

TSPAN31 (UniProt Q12999)
inactive: [1] 0.023 | [3] -0.047 | [4] 0.064 | [5] 0.364 | [6] 0.047 | [7] -0.022 | [8] -0.071

UBE2D1 (UniProt P51668)
inactive: [2] 0.007 | [3] 0.005 | [9] 0.003 | [5] -0.203 | [10] -0.058 | [8] 0.117

TTC26
inactive: [2] 0.035 | [9] 0.204 | [10] -0.211 | [8] 0.062

TXNRD1 isoform 7 (UniProt Q16881)
inactive: [2] -0.209 | [4] -0.069 | [5] -0.01

TUT7 (UniProt Q5VYS8)
inactive: [1] 0.004 | [3] 0.019 | [4] 0 | [6] 0.217 | [7] 0.113 | [8] -0.395

TTK (UniProt P33981)
inactive: [9] 0.192 | [4] -0.003 | [10] 0.244

TTC14 (UniProt Q96N46)
inactive: [2] -0.104 | [5] 0.166 | [8] 0.569

UBAP2L (UniProt F8W726)
inactive: [2] 0.017 | [5] -0.002 | [8] 0.136

TUT1 (UniProt Q9H6E5)
inactive: [2] -0.041
